Seven sequences from paper PMC3496659, “Analysis of the sulfur-regulated control of the cystathionine γ-lyase gene of Neurospora crassa” can be followed below.

The series deals with T1, CYS3 transcriptional activator (Neurospora crassa) (UniProt P22697).
T1 sequence (looked up, limits assumed): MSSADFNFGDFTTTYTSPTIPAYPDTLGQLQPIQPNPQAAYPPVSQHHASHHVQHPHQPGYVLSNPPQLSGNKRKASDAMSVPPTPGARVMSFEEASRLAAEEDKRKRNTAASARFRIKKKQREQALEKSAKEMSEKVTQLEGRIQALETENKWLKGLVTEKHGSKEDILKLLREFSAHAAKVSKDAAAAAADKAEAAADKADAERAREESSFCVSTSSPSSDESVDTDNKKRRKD
Nature of the series: EMSA. The note with it: Binding buffer not given (refs 14,20); 4% PAGE in 50 mM Tris-80 mM glycine-2 mM EDTA pH 8.5, 20 mA, 4 C; recombinant protein; label: 32P (T4 PNK). Background: In EMSA bound probe runs differently from free probe, usually more slowly.

Construct, isoform or probe ends are uncertain for at least one entry. A weaker result is weaker than the reference pair of the same experiment. At least one verdict was read from the data and is not stated in words by the source. Where a protein sequence is shown, tags need not be part of it.

In the case of “AACCTGAATTGCTCCATCGCCAAA (double strand) [Site 3 M]”, the binding result was “binds more weakly”.

For the sequence “ACCATGCATTCCGCCATAGAGGTA (double strand) [cys-16+ Site 1]”, the binding result is reported as “binds more weakly”.

On to “ACCATGCATTCCTCCATAGAGGTA (double strand) [Site 1 M]”, for which the binding result is on record as “binds more weakly”.

With “GTCGTCGATGGGTTCAGTGGTGCT (double strand) [Site 2 M]”, the binding result is given as “binds more weakly”.

On to “GTCGTCGATGGTGTCAGTGGTGCT (double strand) [cys-16+ Site 2]”, for which the binding result was “binds”.

Regarding “TCACCAATTGGCGCCATCTCCGTC (double strand) [cys-16+ Site 4]”, the binding result is given as “binds”.

In the case of “TCACCAATTGGCTCCATCTCCGTC (double strand) [Site 4 M]”, the binding result is “binds more weakly”.
